Data reported in US11051513B2, “Pyridone compounds and agricultural and horticultural fungicides containing the same as active ingredients” (MITSUI CHEMICALS AGRO, INC., priority 2017, dated 2021).
Some results were stated once for a whole list of compounds, not compound by compound.

What was measured:
Magnaporthe grisea = assay type: in vivo; settings: 250 ppm sprayed (2.5 ml/pot) on rice (Sachikaze); disease development 6 to 10 days after inoculation
[1] = tested on: Colletotrichum orbiculare; test: Test Example H: Anthracnose on cucumber; settings: 250 ppm sprayed (2.5 ml/pot) on cucumber (Sagami Hanjiro); disease development 6 to 10 days after inoculation
Botrytis cinerea = test: Test Example B: Gray mold on tomato; settings: 250 ppm sprayed (2.5 ml/pot) on tomato (Oogata Fukuju); disease development 2 to 3 days after inoculation
Alternaia brassicicola = test: Test Example C: Alternaria sooty spot on cabbage; settings: 250 ppm sprayed (2.5 ml/pot) on cabbage (Shikidori); disease development 2 to 3 days after inoculation
Puccinia recondita = test: Test Example E: Brown rust on wheat; assay type: in vivo; settings: 250 ppm sprayed (2.5 ml/pot) on wheat (Norin 61); disease development 7 to 10 days after inoculation

Measured: control value

CCn1c(-c2ccc(OCC(F)F)cc2)c(-c2cc(F)cc(F)c2Cl)cc(Cl)c1=O [compound 222]
not listed: Puccinia recondita
> 50%: all other assays above

Cn1c(-c2ccccc2)c(-c2cc(F)ccc2Cl)cc(Br)c1=O [compound 83]
not listed: Alternaia brassicicola
> 50%: all other assays above

COCCOc1ccc(Cl)c(-c2cc(Cl)c(=O)n(CC(F)F)c2-c2ccc(F)cc2)c1 [compound 439]
not listed: Puccinia recondita
> 50%: all other assays above

CCn1c(-c2ccccc2)c(-c2ccccc2C)cc(Br)c1=O [compound 540]
not listed: Puccinia recondita
> 50%: all other assays above

CCn1c(-c2cc(F)cc(F)c2)c(-c2ccccc2Cl)cc(Cl)c1=O [compound 204]
not listed: Alternaia brassicicola
> 50%: all other assays above

Cn1c(-c2cc(F)cc(F)c2)c(-c2cc(F)ccc2Cl)ccc1=O [compound 140]
not listed: Alternaia brassicicola
> 50%: all other assays above

Cn1c(-c2ccc(F)cc2)c(-c2cccnc2Cl)cc(Cl)c1=O [compound 292]
not listed: Alternaia brassicicola
> 50%: all other assays above

CCn1c(-c2ccc(C#N)cc2)c(-c2cc(Cl)ccc2Cl)ccc1=O [compound 423]
> 50%: Magnaporthe grisea | [1]

Cc1cc(C)cc(-c2c(-c3ccccc3Cl)cc(Br)c(=O)n2C)c1 [compound 238]
> 50%: Magnaporthe grisea | [1] | Alternaia brassicicola

Cn1c(-c2ccc(F)cc2)c(-c2ccccc2Br)cc(Br)c1=O [compound 241]
not listed: Alternaia brassicicola
> 50%: all other assays above

O=c1c(Br)cc(-c2cc(Cl)ccc2Cl)c(-c2ccc(F)cc2)n1CC(F)F [compound 420]
> 50%: Magnaporthe grisea | [1]

CCn1c(-c2cc(Cl)cc(Cl)c2)c(-c2ccccc2Cl)ccc1=O [compound 206]
not listed: Alternaia brassicicola
> 50%: all other assays above

CCn1c(-c2cc(F)c(F)c(F)c2)c(-c2cc(F)ccc2Cl)cc(Cl)c1=O [compound 171]
> 50%: Magnaporthe grisea | [1] | Botrytis cinerea

CCn1c(-c2cc(F)cc(F)c2)c(-c2cc(F)ccc2Cl)cc(Cl)c1=O [compound 138]
not listed: Alternaia brassicicola
> 50%: all other assays above

CCn1c(-c2ccccc2)c(-c2cccc(OC)c2Cl)cc(Cl)c1=O [compound 107]
not listed: Alternaia brassicicola
> 50%: all other assays above

CCn1c(-c2ccccc2)c(-c2ccccc2Cl)cc(Br)c1=O [compound 128]
not listed: [1]
> 50%: all other assays above

COc1cccc(-c2ccc(=O)n(C)c2-c2ccccc2)c1Cl [compound 120]
not listed: Alternaia brassicicola
> 50%: all other assays above

CCCOc1cccc(-c2cc(Cl)c(=O)n(CC)c2-c2ccc(F)cc2)c1Cl [compound 272]
not listed: [1]
> 50%: all other assays above

CCn1c(-c2ccc(C)cc2)c(-c2ccccc2Cl)cc(Br)c1=O [compound 157]
not listed: [1]
> 50%: all other assays above
